In paper PMC3377668, “Detection of Crosslinks within and between Proteins by LC-MALDI-TOFTOF and the Software FINDX to Reduce the MSMS-Data to Acquire for Validation” (PLoS ONE, 2012):
No constants are given. Whether binding was seen depends on the method and setting. Binding seen in cells or lysates may run through a third protein. Some entries that bind do so weakly or less than the wild type.

Biological target: T1, magnesium chelatase subunit H (BchH) from Rhodobacter capsulatus (Rhodobacter capsulatus) (UniProt P26162)
T1 sequence: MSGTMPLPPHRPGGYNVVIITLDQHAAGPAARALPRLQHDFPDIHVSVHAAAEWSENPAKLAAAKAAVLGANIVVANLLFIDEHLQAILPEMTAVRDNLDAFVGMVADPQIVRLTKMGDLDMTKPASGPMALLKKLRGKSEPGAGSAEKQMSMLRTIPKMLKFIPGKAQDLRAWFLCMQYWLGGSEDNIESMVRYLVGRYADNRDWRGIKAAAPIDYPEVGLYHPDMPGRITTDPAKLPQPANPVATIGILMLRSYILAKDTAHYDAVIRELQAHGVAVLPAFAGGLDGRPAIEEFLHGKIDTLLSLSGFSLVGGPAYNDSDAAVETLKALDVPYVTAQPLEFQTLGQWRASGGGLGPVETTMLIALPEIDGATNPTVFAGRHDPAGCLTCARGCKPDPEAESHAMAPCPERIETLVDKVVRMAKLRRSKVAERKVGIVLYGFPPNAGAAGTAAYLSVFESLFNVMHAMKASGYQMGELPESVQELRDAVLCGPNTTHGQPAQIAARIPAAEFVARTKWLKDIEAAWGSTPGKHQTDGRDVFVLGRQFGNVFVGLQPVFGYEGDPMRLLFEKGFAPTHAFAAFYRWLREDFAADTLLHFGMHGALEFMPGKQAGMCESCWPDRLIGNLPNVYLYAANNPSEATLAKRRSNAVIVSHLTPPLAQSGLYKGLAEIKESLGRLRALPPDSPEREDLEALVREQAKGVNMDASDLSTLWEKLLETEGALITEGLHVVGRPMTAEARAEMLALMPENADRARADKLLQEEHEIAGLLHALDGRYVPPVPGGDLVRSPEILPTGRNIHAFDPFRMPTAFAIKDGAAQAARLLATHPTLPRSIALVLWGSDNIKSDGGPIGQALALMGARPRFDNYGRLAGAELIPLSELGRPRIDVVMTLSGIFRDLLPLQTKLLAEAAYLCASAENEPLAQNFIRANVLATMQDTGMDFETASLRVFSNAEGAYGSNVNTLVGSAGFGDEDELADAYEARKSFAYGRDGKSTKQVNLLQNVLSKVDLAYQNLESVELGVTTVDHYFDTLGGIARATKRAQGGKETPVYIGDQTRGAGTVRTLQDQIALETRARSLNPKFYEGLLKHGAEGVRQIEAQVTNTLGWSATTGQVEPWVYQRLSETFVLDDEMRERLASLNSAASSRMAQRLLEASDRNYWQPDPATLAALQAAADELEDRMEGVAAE
Experiment: cross-linking; magnesium chelatase from Rhodobacter capsulatus crosslinked; crosslinks detected by the FINDX workflow; details not given (Peterson Wulff et al, in preparation)

B1: magnesium chelatase subunit D (BchD) from Rhodobacter capsulatus (protein, UniProt P26175 1-561)
chain: MDHERLKSALAVLTVDPAAVGGLWLRSRAGPIRLAFTDTLAKLPFPMALRRLPPNVDDGALYGGLDVAETLHSGKPVLKGGLLDRPSVFILPMAERCTAKLGARLAQALDLRQHALIALDEAAEPDEALPHAVADRLGLFVDLSEVRSIDGPGLLPETAQIERARELLPQVQMPAERVSEIVEGCRQLGISSLRAPMLALTAARILTALSGRTRVEAEDVLHAAELTLAHRALPLQEAPPPPPPPPEPPEPNEGENQQDEQDQIDPLDGIPPEIVVEAVRAMLPDNILQTLNMGSRLRAASGGQGAGQEQIGNRRGRPLPSRKGKLEDDAKIDLVATLRSAAPWQGLRRRQAPAGTERVLLVESSDIHIKRRKEMSDRVLIFAVDASGSAAVARLSEAKGAVELLLGRAYAARDHVSLITFRGTAAQVLLQPSRSLTQTKRQLQGLPGGGGTPLASGMEMAMVTAKQARSRGMTPTIALLTDGRGNIALDGTANRELAGEQATKVARAIRASGMPAVIIDTAMRPNPALVDLARTMDAHYIALPRATAHKMADVLGAALEA
**Q.** How did the binding turn out when B1 was run?
**A.** binds
